# The list shows a part of the results.
# By UniProt entry, the sequences of proteins in these tests, tags left out. Where a name states a change or a piece, a line headed by the entry shows the natural chain unless it says otherwise.
# UniProt Q96GC9: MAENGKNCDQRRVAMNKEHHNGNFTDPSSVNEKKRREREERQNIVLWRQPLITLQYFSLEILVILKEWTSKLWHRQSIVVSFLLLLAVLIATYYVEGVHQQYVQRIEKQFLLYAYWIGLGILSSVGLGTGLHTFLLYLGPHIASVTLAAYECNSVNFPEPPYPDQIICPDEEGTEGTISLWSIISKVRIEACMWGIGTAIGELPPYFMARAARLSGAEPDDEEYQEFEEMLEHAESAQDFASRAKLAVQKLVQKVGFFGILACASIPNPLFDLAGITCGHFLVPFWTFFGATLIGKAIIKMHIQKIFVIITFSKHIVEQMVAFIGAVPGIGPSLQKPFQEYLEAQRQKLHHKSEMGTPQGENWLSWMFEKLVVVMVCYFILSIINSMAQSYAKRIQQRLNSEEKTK
# UniProt O75717: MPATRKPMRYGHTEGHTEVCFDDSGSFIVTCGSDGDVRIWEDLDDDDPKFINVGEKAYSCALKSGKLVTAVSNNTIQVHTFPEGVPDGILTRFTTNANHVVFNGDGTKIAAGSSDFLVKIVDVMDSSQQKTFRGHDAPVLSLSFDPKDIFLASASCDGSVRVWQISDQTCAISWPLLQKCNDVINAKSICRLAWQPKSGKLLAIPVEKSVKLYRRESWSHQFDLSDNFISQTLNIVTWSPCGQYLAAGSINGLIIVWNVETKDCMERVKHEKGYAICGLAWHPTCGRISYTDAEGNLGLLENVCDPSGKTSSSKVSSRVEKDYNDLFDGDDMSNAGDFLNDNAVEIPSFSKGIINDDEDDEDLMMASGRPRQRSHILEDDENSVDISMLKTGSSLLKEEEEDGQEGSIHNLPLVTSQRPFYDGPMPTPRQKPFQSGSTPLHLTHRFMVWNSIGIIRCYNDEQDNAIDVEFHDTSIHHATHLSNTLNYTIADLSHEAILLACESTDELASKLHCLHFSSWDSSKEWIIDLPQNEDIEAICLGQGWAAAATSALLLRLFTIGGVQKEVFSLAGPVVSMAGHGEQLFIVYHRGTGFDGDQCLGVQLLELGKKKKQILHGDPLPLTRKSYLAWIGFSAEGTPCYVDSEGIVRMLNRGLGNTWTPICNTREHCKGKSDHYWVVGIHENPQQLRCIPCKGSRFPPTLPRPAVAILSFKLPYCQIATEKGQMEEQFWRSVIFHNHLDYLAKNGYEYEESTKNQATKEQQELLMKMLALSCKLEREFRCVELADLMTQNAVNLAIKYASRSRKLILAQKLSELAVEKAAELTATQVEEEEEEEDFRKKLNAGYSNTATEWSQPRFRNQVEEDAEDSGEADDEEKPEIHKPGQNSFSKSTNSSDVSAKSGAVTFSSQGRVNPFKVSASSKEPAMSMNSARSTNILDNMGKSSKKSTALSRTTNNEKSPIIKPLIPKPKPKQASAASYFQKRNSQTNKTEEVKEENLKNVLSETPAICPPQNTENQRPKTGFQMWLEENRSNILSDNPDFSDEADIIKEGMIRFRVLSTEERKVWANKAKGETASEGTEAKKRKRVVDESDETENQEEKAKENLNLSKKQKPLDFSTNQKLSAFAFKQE
# UniProt P21796, whole entry, looked up: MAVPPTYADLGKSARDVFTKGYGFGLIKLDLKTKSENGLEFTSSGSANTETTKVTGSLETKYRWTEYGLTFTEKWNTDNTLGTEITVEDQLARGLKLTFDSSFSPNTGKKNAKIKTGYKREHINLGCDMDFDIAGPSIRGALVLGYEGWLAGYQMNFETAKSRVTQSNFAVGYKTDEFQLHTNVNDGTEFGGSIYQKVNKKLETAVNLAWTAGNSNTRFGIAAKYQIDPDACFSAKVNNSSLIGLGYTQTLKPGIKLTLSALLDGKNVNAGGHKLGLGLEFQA
# UniProt O95785: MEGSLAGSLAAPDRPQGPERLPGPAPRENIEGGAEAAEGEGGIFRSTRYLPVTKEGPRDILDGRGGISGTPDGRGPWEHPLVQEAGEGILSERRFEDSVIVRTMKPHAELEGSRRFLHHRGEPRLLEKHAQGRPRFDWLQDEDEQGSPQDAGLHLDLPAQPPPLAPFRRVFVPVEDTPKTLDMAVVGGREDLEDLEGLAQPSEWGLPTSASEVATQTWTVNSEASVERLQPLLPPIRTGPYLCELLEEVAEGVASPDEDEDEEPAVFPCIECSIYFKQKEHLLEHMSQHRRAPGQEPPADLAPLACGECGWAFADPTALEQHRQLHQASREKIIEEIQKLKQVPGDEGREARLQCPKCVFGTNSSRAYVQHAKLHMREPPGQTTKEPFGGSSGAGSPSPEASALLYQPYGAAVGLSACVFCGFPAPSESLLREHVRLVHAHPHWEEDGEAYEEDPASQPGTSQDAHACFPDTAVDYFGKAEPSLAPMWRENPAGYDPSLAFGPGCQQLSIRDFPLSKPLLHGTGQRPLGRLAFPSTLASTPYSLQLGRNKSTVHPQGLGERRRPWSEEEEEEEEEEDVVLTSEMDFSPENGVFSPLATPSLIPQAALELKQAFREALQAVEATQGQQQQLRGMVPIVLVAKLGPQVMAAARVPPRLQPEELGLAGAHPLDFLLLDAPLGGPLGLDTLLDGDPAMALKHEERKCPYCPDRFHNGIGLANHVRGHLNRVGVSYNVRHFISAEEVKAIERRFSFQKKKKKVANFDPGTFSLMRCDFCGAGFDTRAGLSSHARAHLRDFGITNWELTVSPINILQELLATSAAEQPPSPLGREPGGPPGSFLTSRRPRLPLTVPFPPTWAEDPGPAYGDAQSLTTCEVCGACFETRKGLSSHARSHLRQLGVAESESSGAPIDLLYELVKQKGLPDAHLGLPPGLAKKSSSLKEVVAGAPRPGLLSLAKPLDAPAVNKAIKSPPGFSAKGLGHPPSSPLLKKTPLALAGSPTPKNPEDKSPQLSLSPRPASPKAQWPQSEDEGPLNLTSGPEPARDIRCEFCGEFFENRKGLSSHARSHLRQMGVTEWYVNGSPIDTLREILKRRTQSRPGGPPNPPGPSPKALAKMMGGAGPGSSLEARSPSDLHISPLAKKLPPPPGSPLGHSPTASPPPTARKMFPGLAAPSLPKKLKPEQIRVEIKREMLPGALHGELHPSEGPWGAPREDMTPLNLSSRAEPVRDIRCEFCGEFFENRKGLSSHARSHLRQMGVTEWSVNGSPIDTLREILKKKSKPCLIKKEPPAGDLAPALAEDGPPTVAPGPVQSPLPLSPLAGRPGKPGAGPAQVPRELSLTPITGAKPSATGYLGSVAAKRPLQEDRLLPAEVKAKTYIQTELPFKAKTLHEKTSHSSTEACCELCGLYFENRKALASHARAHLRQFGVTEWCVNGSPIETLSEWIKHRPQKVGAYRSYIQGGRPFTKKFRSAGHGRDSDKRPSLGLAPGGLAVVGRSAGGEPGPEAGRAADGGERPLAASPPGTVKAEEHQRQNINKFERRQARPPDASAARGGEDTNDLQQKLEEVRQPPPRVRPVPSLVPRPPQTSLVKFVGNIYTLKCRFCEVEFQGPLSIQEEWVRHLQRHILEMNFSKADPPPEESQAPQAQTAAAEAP
# UniProt Q14119: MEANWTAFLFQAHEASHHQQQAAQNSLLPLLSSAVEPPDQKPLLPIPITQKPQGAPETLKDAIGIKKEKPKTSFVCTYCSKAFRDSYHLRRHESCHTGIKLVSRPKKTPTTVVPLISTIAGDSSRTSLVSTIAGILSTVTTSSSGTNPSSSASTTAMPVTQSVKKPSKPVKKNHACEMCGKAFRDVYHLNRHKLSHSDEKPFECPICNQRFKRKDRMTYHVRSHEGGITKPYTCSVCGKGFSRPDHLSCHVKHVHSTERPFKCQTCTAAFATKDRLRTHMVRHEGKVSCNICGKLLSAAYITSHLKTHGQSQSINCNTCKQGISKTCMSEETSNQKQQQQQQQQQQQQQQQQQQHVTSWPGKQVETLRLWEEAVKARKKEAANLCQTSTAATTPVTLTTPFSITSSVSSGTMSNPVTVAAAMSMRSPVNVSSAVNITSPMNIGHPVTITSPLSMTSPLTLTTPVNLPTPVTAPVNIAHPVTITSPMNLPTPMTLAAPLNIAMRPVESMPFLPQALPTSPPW
# UniProt Q96AX1: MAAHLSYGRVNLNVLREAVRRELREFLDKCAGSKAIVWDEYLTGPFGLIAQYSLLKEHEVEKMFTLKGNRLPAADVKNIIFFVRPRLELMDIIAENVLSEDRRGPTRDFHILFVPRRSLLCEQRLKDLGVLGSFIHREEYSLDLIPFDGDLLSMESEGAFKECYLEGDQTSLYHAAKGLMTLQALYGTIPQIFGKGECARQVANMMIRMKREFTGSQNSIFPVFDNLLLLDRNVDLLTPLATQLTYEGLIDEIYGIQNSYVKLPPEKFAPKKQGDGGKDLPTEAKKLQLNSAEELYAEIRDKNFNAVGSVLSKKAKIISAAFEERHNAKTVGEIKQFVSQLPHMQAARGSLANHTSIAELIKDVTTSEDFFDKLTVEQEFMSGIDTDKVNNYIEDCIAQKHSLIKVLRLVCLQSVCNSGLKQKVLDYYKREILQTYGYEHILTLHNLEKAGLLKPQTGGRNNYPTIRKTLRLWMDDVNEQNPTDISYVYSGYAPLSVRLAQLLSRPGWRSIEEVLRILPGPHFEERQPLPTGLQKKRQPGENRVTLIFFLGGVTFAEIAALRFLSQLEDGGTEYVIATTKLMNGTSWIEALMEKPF
# UniProt Q9H9H4: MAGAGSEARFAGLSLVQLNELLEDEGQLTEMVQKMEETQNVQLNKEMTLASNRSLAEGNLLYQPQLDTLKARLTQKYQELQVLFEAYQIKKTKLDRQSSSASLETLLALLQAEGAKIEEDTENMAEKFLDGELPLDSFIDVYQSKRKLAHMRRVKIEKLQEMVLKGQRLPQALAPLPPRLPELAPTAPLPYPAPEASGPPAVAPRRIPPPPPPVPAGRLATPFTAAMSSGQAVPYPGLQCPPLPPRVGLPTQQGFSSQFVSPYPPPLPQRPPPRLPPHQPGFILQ
# UniProt Q9Y277: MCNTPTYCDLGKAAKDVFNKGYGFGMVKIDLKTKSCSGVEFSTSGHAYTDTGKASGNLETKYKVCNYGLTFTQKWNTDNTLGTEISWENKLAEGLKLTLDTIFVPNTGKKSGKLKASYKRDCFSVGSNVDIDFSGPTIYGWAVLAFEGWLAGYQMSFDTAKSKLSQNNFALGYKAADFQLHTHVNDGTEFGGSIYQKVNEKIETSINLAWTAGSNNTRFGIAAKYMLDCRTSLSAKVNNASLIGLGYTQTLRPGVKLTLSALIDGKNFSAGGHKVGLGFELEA
# UniProt Q6UXN9, whole entry, looked up: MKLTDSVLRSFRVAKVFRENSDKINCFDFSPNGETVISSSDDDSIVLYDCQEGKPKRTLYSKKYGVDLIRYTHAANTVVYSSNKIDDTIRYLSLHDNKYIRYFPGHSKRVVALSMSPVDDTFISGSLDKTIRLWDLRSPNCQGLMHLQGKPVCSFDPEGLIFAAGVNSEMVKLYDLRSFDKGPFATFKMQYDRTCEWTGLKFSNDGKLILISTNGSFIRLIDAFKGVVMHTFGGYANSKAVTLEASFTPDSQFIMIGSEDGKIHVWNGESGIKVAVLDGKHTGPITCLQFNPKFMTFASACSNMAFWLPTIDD
# UniProt O00401, whole entry, looked up: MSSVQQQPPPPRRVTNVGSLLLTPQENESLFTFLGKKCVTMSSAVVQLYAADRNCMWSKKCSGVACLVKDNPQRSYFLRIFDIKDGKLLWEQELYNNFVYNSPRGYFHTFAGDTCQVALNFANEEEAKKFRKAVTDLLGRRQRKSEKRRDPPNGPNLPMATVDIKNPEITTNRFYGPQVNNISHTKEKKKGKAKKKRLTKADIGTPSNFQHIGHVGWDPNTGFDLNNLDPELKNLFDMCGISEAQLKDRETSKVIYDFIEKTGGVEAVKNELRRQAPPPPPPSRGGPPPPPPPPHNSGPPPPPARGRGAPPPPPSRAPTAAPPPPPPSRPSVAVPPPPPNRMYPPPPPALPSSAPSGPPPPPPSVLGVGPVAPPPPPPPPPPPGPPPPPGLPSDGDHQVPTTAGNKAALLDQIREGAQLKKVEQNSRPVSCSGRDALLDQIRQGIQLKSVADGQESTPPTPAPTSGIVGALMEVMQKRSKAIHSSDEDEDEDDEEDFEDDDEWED
# UniProt Q9HAD4: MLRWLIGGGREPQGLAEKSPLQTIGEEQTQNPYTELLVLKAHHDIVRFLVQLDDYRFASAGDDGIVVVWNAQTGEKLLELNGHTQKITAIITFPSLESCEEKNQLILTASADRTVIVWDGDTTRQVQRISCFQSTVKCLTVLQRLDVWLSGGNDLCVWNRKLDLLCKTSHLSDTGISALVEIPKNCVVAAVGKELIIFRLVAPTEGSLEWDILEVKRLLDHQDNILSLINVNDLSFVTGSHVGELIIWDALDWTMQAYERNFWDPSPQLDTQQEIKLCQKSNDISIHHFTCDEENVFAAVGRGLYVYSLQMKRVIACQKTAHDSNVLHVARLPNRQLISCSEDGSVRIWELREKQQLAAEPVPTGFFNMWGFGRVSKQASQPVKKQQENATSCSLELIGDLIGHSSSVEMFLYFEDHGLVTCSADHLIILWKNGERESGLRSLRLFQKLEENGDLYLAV
# What was measured:
# Assay in all cases: log2 fold change, soluble protein after heating vs DMSO (PISA); higher = thermal stabilisation; K562 cells, 10 uM, 30 min; active = over 0.2 and 3.5 SD of the protein, either way, in both replicates (recomputed)
# [1] = compound: NC(=O)Nc1cc(-c2cccc(F)c2)sc1C(=O)N[C@H]1CCCNC1
# Summary of the method: (§1)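 Aliquots of K562 cells (2×10^6 cells/mL) treated with 10 μM compound for 30 min were heated for 3 min over 48°C-58°C. After pooling and extraction in PBS with 0.5% NP-40 at 4°C, soluble protein from a 21,000xg, 90 min spin was quantified by TMTpro 16plex LC-MS/MS with channel sums equalised. Thermal stability is expressed against control samples, from duplicates, as a log2 fold change.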
# [2] = compound: NC(=O)c1cnc(N[C@@H]2CCCC[C@@H]2N)nc1Nc1cccc(-n2nccn2)c1
# Summary of the method: as §1
# [3] = compound: NC1(c2ccc(-c3nc4ccn5c(=O)[nH]nc5c4cc3-c3ccccc3)cc2)CCC1
# Summary of the method: as §1
# [4] = compound: NCC(=O)Nc1ccc(-n2nc(C(F)(F)F)cc2-c2ccc3c(ccc4ccccc43)c2)cc1
# Summary of the method: as §1
# [5] = compound: Nc1ccccc1NC(=O)c1ccc(CNC(=O)OCc2cccnc2)cc1 [entinostat]
# Summary of the method: as §1
# [6] = compound: O=C(CCCCCCC(=O)Nc1ccccc1)NO [vorinostat]
# Summary of the method: as §1
# [7] = compound: O=C(CCCCCCNC(=O)c1cnc(N(c2ccccc2)c2ccccc2Cl)nc1)NO [citarinostat]
# Summary of the method: as §1
# [8] = compound: O=C(O)c1ccc2c(c1)nc(Nc1cccc(Cl)c1)c1ccncc12 [silmitasertib]
# Summary of the method: as §1
# [9] = compound: O=C1NC(=O)C(c2cnc3ccccn23)=C1c1cn2c3c(cc(F)cc13)CN(C(=O)N1CCCCC1)CC2
# Summary of the method: as §1
# [10] = compound: c1cc(OCCN2CCCCC2)cc(-c2n[nH]c3ccc(-c4nnc[nH]4)cc23)c1
# Summary of the method: as §1
Target,log2 fold change [1],log2 fold change [2],log2 fold change [3],log2 fold change [4],log2 fold change [5],log2 fold change [6],log2 fold change [7],log2 fold change [8],log2 fold change [9],log2 fold change [10]
VMP1 (UniProt Q96GC9),inactive: 0.106,inactive: -0.026,inactive: -0.004,inactive: 0.057,inactive: -0.019,inactive: -0.063,inactive: 0.031,inactive: 0.023,inactive: -0.019,inactive: -0.104
WDHD1 (UniProt O75717),inactive: -0.037,inactive: -0.054,inactive: -0.156,inactive: -0.106,inactive: 0.09,inactive: 0.119,inactive: 0.176,inactive: 0.025,inactive: -0.107,inactive: -0.001
WASF2 (UniProt Q9Y6W5),inactive: -0.027,inactive: 0.028,inactive: -0.041,inactive: -0.029,inactive: -0.007,inactive: -0.014,inactive: 0.039,inactive: 0.006,inactive: 0.085,inactive: -0.024
WIPF2 (UniProt Q8TF74),inactive: -0.004,inactive: -0.043,inactive: 0.015,inactive: -0.003,inactive: -0.036,inactive: 0.03,inactive: 0.015,inactive: -0.035,inactive: -0.013,inactive: -0.022
VPS13C (UniProt Q709C8),inactive: -0.031,inactive: -0.077,inactive: -0.191,inactive: -0.056,inactive: -0.016,inactive: 0,inactive: 0.007,inactive: 0.012,inactive: -0.003,inactive: 0.001
VDAC1 (UniProt P21796),inactive: 0.025,inactive: 0,inactive: 0.008,inactive: 0.019,inactive: -0.002,inactive: -0.044,inactive: 0.039,inactive: -0.015,inactive: -0.019,inactive: -0.009
VPS28 (UniProt Q9UK41),inactive: -0.059,inactive: -0.079,inactive: -0.177,inactive: -0.055,inactive: 0.064,inactive: 0.052,inactive: 0.122,inactive: 0.058,inactive: -0.001,inactive: -0.012
WIZ isoform 3 (UniProt O95785),inactive: -0.019,inactive: 0.077,inactive: -0.121,inactive: 0.051,inactive: -0.11,inactive: 0.163,inactive: 0.029,inactive: 0.069,inactive: 0.138,inactive: -0.16
WDR74 (UniProt Q6RFH5),inactive: 0.064,inactive: 0.102,inactive: 0.148,inactive: -0.027,inactive: -0.101,inactive: 0.045,inactive: -0.022,inactive: 0.025,inactive: 0.11,inactive: -0.048
WDR43 (UniProt Q15061),inactive: 0.023,inactive: 0.03,inactive: 0.068,inactive: -0.023,inactive: -0.029,inactive: -0.078,inactive: 0.007,inactive: 0.051,inactive: -0.007,inactive: -0.027
VEZF1 (UniProt Q14119),inactive: 0.032,inactive: -0.006,inactive: 0.143,inactive: -0.028,inactive: -0.139,inactive: 0.009,inactive: -0.196,inactive: 0.117,inactive: 0.195,inactive: -0.111
VPS39 (UniProt Q96JC1),inactive: 0.026,inactive: -0.119,inactive: -0.195,inactive: -0.039,inactive: 0.05,inactive: 0.101,inactive: 0.01,inactive: -0.004,inactive: 0.055,inactive: -0.042
VPS25 (UniProt Q9BRG1),inactive: -0.009,inactive: 0,inactive: -0.089,inactive: -0.034,inactive: 0.045,inactive: 0.002,inactive: 0.068,inactive: 0.015,inactive: -0.098,inactive: -0.036
WASHC2A (UniProt Q641Q2),inactive: -0.013,inactive: -0.012,inactive: -0.159,inactive: 0.021,inactive: -0.038,inactive: 0.024,inactive: -0.035,inactive: 0.072,inactive: 0.016,inactive: -0.056
VPS33A (UniProt Q96AX1),inactive: 0.012,inactive: -0.121,inactive: -0.191,inactive: -0.084,inactive: 0.05,inactive: 0.051,inactive: 0.063,inactive: 0.019,inactive: 0.029,inactive: -0.059
VPS37B (UniProt Q9H9H4),inactive: 0,inactive: 0.086,inactive: -0.098,inactive: 0.002,inactive: 0.085,inactive: -0.016,inactive: 0.046,inactive: -0.032,inactive: -0.091,inactive: -0.094
WDR12 (UniProt Q9GZL7),inactive: 0.019,inactive: -0.096,inactive: -0.044,inactive: -0.039,inactive: -0.012,inactive: 0.02,inactive: 0.044,inactive: 0.002,inactive: -0.069,inactive: -0.03
WDR44 (UniProt Q5JSH3),inactive: 0.05,inactive: -0.028,inactive: -0.018,inactive: -0.006,inactive: -0.036,inactive: -0.011,inactive: -0.006,inactive: -0.017,inactive: -0.032,inactive: -0.027
VDAC3 (UniProt Q9Y277),inactive: -0.015,inactive: -0.046,inactive: 0.001,inactive: -0.017,inactive: -0.012,inactive: -0.019,inactive: 0.016,inactive: -0.005,inactive: -0.03,inactive: -0.024
WDR82 (UniProt Q6UXN9),inactive: -0.005,inactive: 0.039,inactive: 0.12,inactive: 0.046,inactive: -0.043,inactive: -0.054,inactive: 0,inactive: 0.098,inactive: 0.099,inactive: -0.101
WDSUB1 (UniProt Q8N9V3),inactive: -0.037,inactive: -0.054,inactive: -0.05,inactive: -0.017,inactive: -0.085,inactive: -0.003,inactive: 0.032,inactive: 0.001,inactive: -0.09,inactive: 0.035
WASHC5 (UniProt Q12768),inactive: 0,inactive: -0.011,active: -0.232,inactive: -0.047,inactive: 0.04,inactive: 0.022,inactive: 0.074,inactive: 0.045,inactive: 0.038,inactive: -0.012
VPS45 (UniProt Q9NRW7),inactive: -0.041,inactive: 0.029,inactive: -0.2,inactive: -0.101,inactive: -0.011,inactive: 0.036,inactive: 0.07,inactive: 0.008,inactive: 0.007,inactive: -0.085
WDR1 (UniProt O75083),inactive: -0.043,inactive: -0.043,inactive: -0.128,inactive: -0.048,inactive: 0.011,inactive: 0.006,inactive: 0.039,inactive: -0.027,inactive: -0.064,inactive: -0.029
WASL (UniProt O00401),inactive: -0.015,inactive: -0.097,inactive: -0.06,inactive: 0.043,inactive: 0.069,inactive: 0.048,inactive: -0.021,inactive: 0.06,inactive: -0.126,inactive: 0.028
WDR5 (UniProt P61964),inactive: 0.065,inactive: 0.039,inactive: 0.139,inactive: 0.035,inactive: -0.012,inactive: -0.019,inactive: 0.023,inactive: 0.037,inactive: 0.087,inactive: -0.074
WDR3 (UniProt Q9UNX4),inactive: 0.097,inactive: 0.122,inactive: 0.147,inactive: 0.102,inactive: 0.012,inactive: 0.013,inactive: 0.002,inactive: 0.264,inactive: 0.157,inactive: -0.11
WDR11 (UniProt Q9BZH6),inactive: 0.039,inactive: -0.164,inactive: -0.087,inactive: -0.192,inactive: -0.024,inactive: -0.007,inactive: -0.067,inactive: -0.025,inactive: -0.016,inactive: -0.036
WDR41 (UniProt Q9HAD4),inactive: 0,inactive: -0.005,inactive: -0.173,inactive: -0.005,inactive: 0.038,inactive: 0.091,inactive: 0.036,inactive: 0.031,inactive: -0.11,inactive: -0.07
XIAP (UniProt P98170),inactive: -0.004,inactive: -0.12,inactive: -0.113,inactive: -0.001,inactive: 0.009,inactive: 0.053,inactive: 0.091,inactive: -0.029,inactive: -0.047,inactive: -0.106

# Random excerpt: two entries already listed.
Target,log2 fold change [1],log2 fold change [2],log2 fold change [3],log2 fold change [4],log2 fold change [5],log2 fold change [6],log2 fold change [7],log2 fold change [8],log2 fold change [9],log2 fold change [10]
WDR12 (UniProt Q9GZL7),inactive: 0.019,inactive: -0.096,inactive: -0.044,inactive: -0.039,inactive: -0.012,inactive: 0.02,inactive: 0.044,inactive: 0.002,inactive: -0.069,inactive: -0.03
VPS25 (UniProt Q9BRG1),inactive: -0.009,inactive: 0,inactive: -0.089,inactive: -0.034,inactive: 0.045,inactive: 0.002,inactive: 0.068,inactive: 0.015,inactive: -0.098,inactive: -0.036

# — the supplement of paper PMC10849652
